Laboratory results from patent US20240158500A1 (UCL BUSINESS, published 2024).
No constants are given. Whether binding was seen depends on the method and setting. Some results given as binding are weak or reduced against the parent protein; the word gives no strength.

T1: CD160 transmembrane (TM) isoform, on engineered cells (UniProt O95971)
T1 sequence (looked up): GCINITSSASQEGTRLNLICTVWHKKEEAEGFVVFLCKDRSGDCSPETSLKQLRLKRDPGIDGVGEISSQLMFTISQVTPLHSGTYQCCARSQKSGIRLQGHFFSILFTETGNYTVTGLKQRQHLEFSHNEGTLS

T2: purified CD160 (SPR analyte) (UniProt O95971)
T2 sequence (looked up): T1 sequence (looked up)

B1: anti-CD160 scFv clone 6 (SC14) (scFv)
scFv: EVQLVESGGGFVQPGRSLKLSCAASGFTFSNYAMAWVRQAPTKGLEWVASINSGGGDSYYRDSVKGRFTISRDNAKNTQYLQMDSLRSEDTATYYCATHNYGSTIFDYWGQGAMVTVSSGGGGSGGGGSGGGGSEIILTQSPTTMTASPGEKVTITCRASSSVSYMHWYQQKPGASPKPWIYETSKLASGVPDRFSGSGSGTSYSLTINNMEAEDAATYYCQQWNYPSMYTFGAGTKLELKR
notes: Rat scFv, VH-linker-VL
B2: anti-CD160 scFv clone 9 (PB6) (scFv)
scFv: EVQLVESGGGLVQPGRSLKLSCAASGFTFSNYAMAWVRQAPTKGLEWVASISSGGGDTYYRDSVKGRFTISRDNSKNTQYLQMDSLRSEDTATYYCATHNYESTVLITWGQGASVTVSSGGGGSGGGGSGGGGSEIVLTQSPTTTAASPGERVTITCRASSSVSYMHWYQQKPGASPKPWIYETSKLASGVPDRFSGSGSGTSYSLTINNMEAEDAATYYCQQWNYPSMYTFGAGTKLEIKR
notes: Rat scFv, VH-linker-VL
B3: anti-CD160 scFv clone 5 (C10) (scFv)
scFv: QVQLKESGPGLVQPSETLSLTCTVSGFSLTNYGINWFRQPPGKGLEWMGTIWNDGGTDYNSALKSRLTISRDTSKSQVFLKMNSLQTEDTAIYFCARGMEAWGQGASVTVSSGGGGSGGGGSGGGGSDIQLTQSPSLLSASVGDRVTLSCKGSQNINNYLAWYQQKLGEAPKLLIYNTNSLQTGIPSRFSGSGSGTDYTLTISSLQPEDFATYFCLQHNSGYTFGAGTKLEIKR
notes: Rat scFv, VH-linker-VL; also called 010
B4: anti-CD160 scFv clone 2 (C25) (scFv)
scFv: EVQLVESGGDLVQPGRSLKLSCAASGFTFSNYGMAWVRQAPTKGLEWVASVSNGGGNTYYRDSVKGRFTISRDNAKNTQYLQMDSLRSEDTATYYCVTHNYESTVFDYWGQGAMVTVSSGGGGSGGGGSGGGGSEIVLTQSPTTMTASPGEKVTITCRASSSVSYMHWYQQKPGASPKPWIYETSKLASGVPDRFSGSGSGTSYSLTINNMEAEDAATYYCQQWNYPSMYTFGPGTKLELKR
B5: anti-CD160 scFv clone 3 (C83) (scFv)
scFv: QVNLQESGPGLVQPSETLSLTCTVSGFSLTSYGVYWVRQPPGKGLEWMGRIWNDGGTDYNPALKSRLSISRDTSKSQVFLKLNSLQTEDTAIYFCARGWTHWGQGTLVTVSSGGGGSGGGGSGGGGSDIQMTQSPASLSASLGETVSIECLASEDIYNNLAWYQQKPGKSPQLLIYYASSLQDGVPSRFSGSGSGTQYSLKINSLESEDVATYFCLQDSEYPPTFGGGTKLELKR
B6: anti-CD160 scFv clone 1 (C123) (scFv)
scFv: EVKLVESGGGLVQPGRSLKLSCAASGFIFSNYAMAWVRQAPTKGLEWVASVNSGGANTYYRDSVKGRFTISRDNAKNTQYLHIDSLRSEDTATYYCATHNYESTVFDYWGQGAMVTVSSGGGGSGGGGSSGGGGSEIVLTQSPTTMTASPGEKVTITCRASSSVSYMHWYQQKPGASPKPWIYETSKLASGVPDRFSGSGSGTSYSLTINNMEAEDAATYYCQQWNYPSMYTFGAGTKLELKR
notes: Rat scFv, VH-linker-VL
B7: anti-CD160 scFv clone 8 (PB9) (scFv)
scFv: QVNLQESGPGLVQPSETLSLTCTVSGFSLTNYGINWFRQPPGKGLEWMGTIWNDGGTDYNSALKSRLSISRDTSKSQVFLKMNSLQTEDTAIYFCARGMDAWGQGASVTVSSGGGGSGGGGSGGGGSDIQMTQSPASLSASLGETVSIECLASEDIYNNLAWYQQKPGKSPQLLIYYANSLQDGVPSRFSGSGSGTQYSLKINSLQSEDVATYFCQQYNNYPFTFGSGTKLELKR
notes: Rat scFv, VH-linker-VL
B8: anti-CD160 scFv clone 11 (PB10) (scFv)
scFv: EVQLVESGGGLVQPGRSLKLSCAASGFTFSNYGMAWVRQAPTKGLEWVASINTSGGSTYYRDSVKGRFTISRDNAKSTLYLQMDSLRSEDTATYYCATIYYHDGSYYYAGWFAYWGQGTLVTVSSGGGGSGGGGSGGGGSDIVLTQSPALAVSPGERVSISCRASESVSTLMHWYQQKLGQQPKLLIYGASNLESGVPARFSGSGSGTDFTLNIDPVEADDIATYFCQQSWNGPWTFGGGTKLELKR
notes: Rat scFv, VH-linker-VL

What follows are binders tested against T1, CD160 transmembrane (TM) isoform, on engineered cells (assay: staining of cells expressing the TM isoform of CD160 (FIG. 11)).

Row | Binder | binding
1 | B1 | binds
2 | B2 | binds
3 | B3 | binds
4 | B4 | binds
5 | B5 | binds
6 | B6 | binds
7 | B7 | binds
8 | B8 | binds

Each binder was assayed against T2, purified CD160 (SPR analyte) (assay: SPR (Biacore T200), scFv captured on a CM5 chip, CD160 injected at 3.70, 11.11, 33.33, 100 and 300 nM; no unit is printed on the time axis).

Row | Binder | binding
9 | B1 | binds
10 | B3 | binds
11 | B4 | binds
12 | B5 | binds
13 | B6 | binds
